Results: patent US8252532B2 (University of Connecticut, priority 2006, dated 2012)
For at least one compound, name, drawing or mass did not settle the structure.

Test system: human granulosa/luteal cells
Assay: Apoptotic nuclei in human granulosa/luteal cells after serum withdrawal (TUNEL, in situ DNA staining)
Assay type: cell-based
Conditions: 5 μM RU486
Procedure: After the oocytes were removed, follicular aspirates were pooled and centrifuged at 250×g for 10 minutes. The cell pellet was resuspended in serum-free culture medium, layered on HISTOPAQUE-1077 and centrifuged for 30 minutes at 400×g. After centrifugation, the opaque interface containing the granulosa/luteal cells was carefully aspirated and transferred into a 15 ml sterile conical centrifuge tube. The cells were then washed by resuspending the cells in 12 ml of PBS and centrifuging them at 250×g for 10 minutes. This was repeated two additional times. The cell pellet was then resuspended in 1 ml of 0.25% trypsin-EDTA solution and incubated for 5 minutes to dissociate the cells. After trypsinization, 5 ml of serum-supplemented medium was added and the cells were centrifuged at 250×g for 10 minutes. The cells were then resuspended in serum-supplemented medium, counted in a hemacytometer and resuspended to yield a final concentration 1 million cells/ml. […]
Both TUNEL and in situ DNA staining were used to identify apoptotic nuclei. […] At least 100 cells/culture well were counted and the percentage of apoptotic nuclei in each well determined.
Human granulosa/luteal cells were plated on lab tek slides and cultured for three days as previously described. […] One hundred cells in each chamber were counted and the percentage of apoptotic nuclei determined as previously described.

With `CC#C[C@]1(O)CC[C@H]2[C@@H]3CCC4=CC(=O)CCC4=C3[C@@H](c3ccc(N(C)C)cc3)C[C@@]21C` [RU486] the “percentage of apoptotic nuclei compared to control” value was “did not increase”.
